PubChem BioAssay AID1259254 – NCATS – 2017
Shown is a random part of about 59,000 reagents. About 1,550 of all reagents (2.6%) count as active. 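G2 share is only a proxy for re-replication; each gene was hit by three separate siRNAs, and active genes were retested.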 The raw values are shown without normalisation. Reagents against one gene are numbered here. Not stated in the record: the amount of reagent.

Purpose: 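Finding genes that stop cells copying their DNA twice in one cycle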 (primary screen)
Cell system: human HCT116 colorectal cancer cells
Reagent: single siRNA against human genes
Time to read-out: 3 days
Read-out: 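Imaged Hoechst DNA stain sorts each cell into a cycle phase by DNA amount; per plate, G2 fraction set to 0% for non-targeting and 100% for GMNN siRNA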
Reading the numbers: G2 robust z-score and G2 cells, % of GMNN control: higher = more G2 cells, more excess DNA replication; raw share of cells in G2: higher = larger share of cells with G2 DNA content
Hit rule: 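An siRNA counts as active if its G2 robust z-score lies at least 5 MADs above the screen median; here such calls match roughly 38% of GMNN control or more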

no.	Gene	reagent no.	G2 robust z-score	G2 cells, % of GMNN control	raw share of cells in G2 (%)	call
1	CHUK	1	0.389	5.7	7.49	inactive
2	CHUK	2	-0.548	-0.89	5.11	inactive
3	CHUK	3	0.223	4.54	5.62	inactive
4	AKIP1	1	0.305	5.11	6.36	inactive
5	AKIP1	2	-0.196	1.59	5.22	inactive
6	AKIP1	3	-0.501	-0.561	2.85	inactive
7	HMBOX1	1	-0.746	-2.28	3.59	inactive
8	HMBOX1	2	0.884	9.19	8.73	inactive
9	HMBOX1	3	0.326	5.26	4.09	inactive
10	RNF213	1	-0.716	-2.07	3.53	inactive
11	RNF213	2	-0.524	-0.718	4.12	inactive
12	RNF213	3	-0.393	0.205	3.09	inactive
13	RNF213	4	1.1	10.7	8.57	inactive
14	RNF213	5	2.92	23.5	15.7	inactive
15	RNF213	6	0.613	7.28	5.33	inactive
16	NSMCE1	1	0.46	6.2	5.82	inactive
17	NSMCE1	2	-0.392	0.208	3.03	inactive
18	NSMCE1	3	-0.0407	2.68	3.61	inactive
19	DLC1	1	0.189	4.3	7.56	inactive
20	DLC1	2	-0.71	-2.03	3.19	inactive
21	DLC1	3	0.485	6.38	8.99	inactive
22	NPRL3	1	1.28	12	10.4	inactive
23	NPRL3	2	-0.338	0.591	4.13	inactive
24	NPRL3	3	-0.176	1.73	3.96	inactive
25	PODN	1	0.194	4.33	6.12	inactive
26	PODN	2	0.0464	3.29	7.2	inactive
27	PODN	3	-0.352	0.494	5.18	inactive

Looked up above:
NSMCE1 #1, G2 cells, % of GMNN control → 6.2
Value of CHUK #3 under “raw share of cells in G2 (%)”: 5.62
Result of CHUK #2 in “G2 robust z-score”: -0.548
Entry of NSMCE1 #3 in “G2 cells, % of GMNN control”: 2.68

The results go on.
no.	Gene	reagent no.	G2 robust z-score	G2 cells, % of GMNN control	raw share of cells in G2 (%)	call
28	UBE4A	1	0.124	3.84	6.28	inactive
29	UBE4A	2	0.952	9.67	8.17	inactive
30	UBE4A	3	-0.563	-0.992	4.92	inactive
31	PCGF5	1	-0.07	2.47	4.41	inactive
32	PCGF5	2	0.389	5.7	4.81	inactive
33	PCGF5	3	-1.08	-4.64	3.81	inactive
34	FAM221B	1	0.217	4.49	6.65	inactive
35	FAM221B	2	-0.725	-2.13	3.03	inactive
36	FAM221B	3	-0.58	-1.11	3.08	inactive
37	TET1	1	-0.14	1.98	5.27	inactive
38	TET1	2	-0.0445	2.65	5.46	inactive
39	TET1	3	-0.867	-3.13	1.52	inactive
40	DIS3	1	-0.0407	2.68	7.44	inactive
41	DIS3	2	-1.13	-4.97	2.49	inactive
42	DIS3	3	-0.599	-1.24	3.44	inactive
43	DIRC3	1	0.263	4.81	4.93	inactive
44	DIRC3	2	2.32	19.3	11.7	inactive
45	DIRC3	3	0.984	9.89	6.56	inactive
46	SOX12	1	0.708	7.95	8.36	inactive
47	SOX12	2	0.578	7.04	6.96	inactive
48	SOX12	3	-0.612	-1.34	3.51	inactive
49	PDCD4	1	0.134	3.91	7.94	inactive
50	PDCD4	2	-1.36	-6.57	2	inactive
51	PDCD4	3	1.64	14.5	8.73	inactive
52	ZNF383	1	-0.0368	2.71	4.02	inactive
53	ZNF383	2	0.512	6.57	5.45	inactive
54	ZNF383	3	0.162	4.11	4.97	inactive
55	ABCC6	1	2.18	18.3	10.8	inactive
56	ABCC6	2	-0.105	2.23	5.87	inactive
57	ABCC6	3	2.69	21.9	12.2	inactive
58	VTI1B	1	-0.461	-0.274	5.21	inactive
59	VTI1B	2	-0.745	-2.28	2.99	inactive
60	VTI1B	3	-0.445	-0.166	3.34	inactive
61	UCP1	1	-0.132	2.04	5.02	inactive
62	UCP1	2	-0.229	1.36	4.92	inactive
63	UCP1	3	-1.2	-5.46	3.29	inactive
64	ALDH9A1	1	-0.443	-0.146	4.67	inactive
65	ALDH9A1	2	-0.573	-1.06	4.69	inactive
66	ALDH9A1	3	3.42	27	14	inactive
67	LINC00705	1	-0.522	-0.709	3.74	inactive
68	LINC00705	2	0.945	9.62	7.47	inactive
69	LINC00705	3	-0.38	0.291	4.31	inactive
